Record: PubChem BioAssay AID1259291 (Sanger Institute, 2017)
Assay: 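Find kinase and colorectal-cancer-mutated genes whose loss kills HT29 cells or aids anchor drugs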 (primary screen). Cells: HT29 human colorectal cancer cells. Knock-down reagent: siRNA pool against human genes. Conditions: anchor drugs added a day after transfection: BYL719 at 1 µM, cetuximab at 5 µg/ml or trametinib at 10 nM, or DMSO vehicle alone. Detection: 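Cell viability as a fraction of the non-targeting pool, mean of replicates, robust z-scores from control wells; synergy scores for BYL719 (1 µM), cetuximab (5 µg/ml), trametinib (10 nM)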. Scale: robust z-score, knock-down alone and viability, knock-down alone: higher = more viable cells; synergy score with BYL719 and synergy score with cetuximab and synergy score with trametinib: higher = stronger synergistic killing with drug. Call rule: 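Essential when the robust z-score for knock-down without any drug is below -3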. Meaning of the calls: active = essential (knock-down alone); inactive = no change alone.
This is an unselected part of 794 reagents. 15 of all reagents (1.9%) were called active. 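Calls rest on knock-down alone; drug synergy scores do not affect them; drugs added a day post-transfection, DMSO vehicle as comparison.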 No viability above 1 is reported: the scale is capped. Not stated in the record: the amount of reagent, the time to read-out.

no.	gene symbol	robust z-score, knock-down alone	viability, knock-down alone (fraction of control)	synergy score with BYL719	synergy score with cetuximab	synergy score with trametinib	Call
1	BLK	0.552	1	-0.045	0.0859	-0.0642	inactive
2	DGKB	0.552	1	0.189	0.147	-0.00746	inactive
3	STK17B	0.552	1	-0.00617	0.0263	0.171	inactive
4	PTPRU	-0.582	0.93	-0.0104	0.0546	-0.0932	inactive
5	NUP107	-5.18	0.645	-0.0398	0.155	-0.00675	active
6	DDR1	0.552	1	-0.158	0	0.00874	inactive
7	MAPK12	-2.46	0.813	-0.228	-0.089	-0.199	inactive
8	TPD52L3	0.552	1	0.0262	0.032	-0.0683	inactive
9	MED12	-1.18	0.893	-0.0281	0.121	0.00849	inactive
10	ROCK1	0.552	1	-0.117	0	-0.0331	inactive
11	ULK4	-0.33	0.945	0.0624	0.0493	0.214	inactive
12	NEK8	0.552	1	0.00719	0	-0.0441	inactive
13	IRAK4	0.552	1	0.0694	0.0649	-0.0347	inactive
14	PANK1	0.552	1	0.00874	0.0211	-0.0711	inactive
15	CDK18	-1.93	0.846	-0.0588	0.054	-0.035	inactive
16	PIK3C2G	0.552	1	0.167	0.169	0.0279	inactive
17	PIP5KL1	0.552	1	0.0839	0.0678	0.0276	inactive
18	NME5	0.552	1	-0.0471	0.0092	-0.0341	inactive
19	MAP3K14	0.552	1	-0.00991	0.0503	-0.103	inactive
20	PHKG1	0.334	0.986	0.0373	0.0165	0.2	inactive
